Three molecules from paper doi:10.1101/739631 can be followed below.

Sequences of proteins named here, by UniProt entry; tags and fusion partners are left off.
UniProt Q921J2: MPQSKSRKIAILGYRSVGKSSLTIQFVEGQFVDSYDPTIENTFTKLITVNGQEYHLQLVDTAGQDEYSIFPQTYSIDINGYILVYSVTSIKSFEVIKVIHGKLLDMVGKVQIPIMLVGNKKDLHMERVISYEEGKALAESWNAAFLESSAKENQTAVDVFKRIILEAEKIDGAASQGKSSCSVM
UniProt P42859: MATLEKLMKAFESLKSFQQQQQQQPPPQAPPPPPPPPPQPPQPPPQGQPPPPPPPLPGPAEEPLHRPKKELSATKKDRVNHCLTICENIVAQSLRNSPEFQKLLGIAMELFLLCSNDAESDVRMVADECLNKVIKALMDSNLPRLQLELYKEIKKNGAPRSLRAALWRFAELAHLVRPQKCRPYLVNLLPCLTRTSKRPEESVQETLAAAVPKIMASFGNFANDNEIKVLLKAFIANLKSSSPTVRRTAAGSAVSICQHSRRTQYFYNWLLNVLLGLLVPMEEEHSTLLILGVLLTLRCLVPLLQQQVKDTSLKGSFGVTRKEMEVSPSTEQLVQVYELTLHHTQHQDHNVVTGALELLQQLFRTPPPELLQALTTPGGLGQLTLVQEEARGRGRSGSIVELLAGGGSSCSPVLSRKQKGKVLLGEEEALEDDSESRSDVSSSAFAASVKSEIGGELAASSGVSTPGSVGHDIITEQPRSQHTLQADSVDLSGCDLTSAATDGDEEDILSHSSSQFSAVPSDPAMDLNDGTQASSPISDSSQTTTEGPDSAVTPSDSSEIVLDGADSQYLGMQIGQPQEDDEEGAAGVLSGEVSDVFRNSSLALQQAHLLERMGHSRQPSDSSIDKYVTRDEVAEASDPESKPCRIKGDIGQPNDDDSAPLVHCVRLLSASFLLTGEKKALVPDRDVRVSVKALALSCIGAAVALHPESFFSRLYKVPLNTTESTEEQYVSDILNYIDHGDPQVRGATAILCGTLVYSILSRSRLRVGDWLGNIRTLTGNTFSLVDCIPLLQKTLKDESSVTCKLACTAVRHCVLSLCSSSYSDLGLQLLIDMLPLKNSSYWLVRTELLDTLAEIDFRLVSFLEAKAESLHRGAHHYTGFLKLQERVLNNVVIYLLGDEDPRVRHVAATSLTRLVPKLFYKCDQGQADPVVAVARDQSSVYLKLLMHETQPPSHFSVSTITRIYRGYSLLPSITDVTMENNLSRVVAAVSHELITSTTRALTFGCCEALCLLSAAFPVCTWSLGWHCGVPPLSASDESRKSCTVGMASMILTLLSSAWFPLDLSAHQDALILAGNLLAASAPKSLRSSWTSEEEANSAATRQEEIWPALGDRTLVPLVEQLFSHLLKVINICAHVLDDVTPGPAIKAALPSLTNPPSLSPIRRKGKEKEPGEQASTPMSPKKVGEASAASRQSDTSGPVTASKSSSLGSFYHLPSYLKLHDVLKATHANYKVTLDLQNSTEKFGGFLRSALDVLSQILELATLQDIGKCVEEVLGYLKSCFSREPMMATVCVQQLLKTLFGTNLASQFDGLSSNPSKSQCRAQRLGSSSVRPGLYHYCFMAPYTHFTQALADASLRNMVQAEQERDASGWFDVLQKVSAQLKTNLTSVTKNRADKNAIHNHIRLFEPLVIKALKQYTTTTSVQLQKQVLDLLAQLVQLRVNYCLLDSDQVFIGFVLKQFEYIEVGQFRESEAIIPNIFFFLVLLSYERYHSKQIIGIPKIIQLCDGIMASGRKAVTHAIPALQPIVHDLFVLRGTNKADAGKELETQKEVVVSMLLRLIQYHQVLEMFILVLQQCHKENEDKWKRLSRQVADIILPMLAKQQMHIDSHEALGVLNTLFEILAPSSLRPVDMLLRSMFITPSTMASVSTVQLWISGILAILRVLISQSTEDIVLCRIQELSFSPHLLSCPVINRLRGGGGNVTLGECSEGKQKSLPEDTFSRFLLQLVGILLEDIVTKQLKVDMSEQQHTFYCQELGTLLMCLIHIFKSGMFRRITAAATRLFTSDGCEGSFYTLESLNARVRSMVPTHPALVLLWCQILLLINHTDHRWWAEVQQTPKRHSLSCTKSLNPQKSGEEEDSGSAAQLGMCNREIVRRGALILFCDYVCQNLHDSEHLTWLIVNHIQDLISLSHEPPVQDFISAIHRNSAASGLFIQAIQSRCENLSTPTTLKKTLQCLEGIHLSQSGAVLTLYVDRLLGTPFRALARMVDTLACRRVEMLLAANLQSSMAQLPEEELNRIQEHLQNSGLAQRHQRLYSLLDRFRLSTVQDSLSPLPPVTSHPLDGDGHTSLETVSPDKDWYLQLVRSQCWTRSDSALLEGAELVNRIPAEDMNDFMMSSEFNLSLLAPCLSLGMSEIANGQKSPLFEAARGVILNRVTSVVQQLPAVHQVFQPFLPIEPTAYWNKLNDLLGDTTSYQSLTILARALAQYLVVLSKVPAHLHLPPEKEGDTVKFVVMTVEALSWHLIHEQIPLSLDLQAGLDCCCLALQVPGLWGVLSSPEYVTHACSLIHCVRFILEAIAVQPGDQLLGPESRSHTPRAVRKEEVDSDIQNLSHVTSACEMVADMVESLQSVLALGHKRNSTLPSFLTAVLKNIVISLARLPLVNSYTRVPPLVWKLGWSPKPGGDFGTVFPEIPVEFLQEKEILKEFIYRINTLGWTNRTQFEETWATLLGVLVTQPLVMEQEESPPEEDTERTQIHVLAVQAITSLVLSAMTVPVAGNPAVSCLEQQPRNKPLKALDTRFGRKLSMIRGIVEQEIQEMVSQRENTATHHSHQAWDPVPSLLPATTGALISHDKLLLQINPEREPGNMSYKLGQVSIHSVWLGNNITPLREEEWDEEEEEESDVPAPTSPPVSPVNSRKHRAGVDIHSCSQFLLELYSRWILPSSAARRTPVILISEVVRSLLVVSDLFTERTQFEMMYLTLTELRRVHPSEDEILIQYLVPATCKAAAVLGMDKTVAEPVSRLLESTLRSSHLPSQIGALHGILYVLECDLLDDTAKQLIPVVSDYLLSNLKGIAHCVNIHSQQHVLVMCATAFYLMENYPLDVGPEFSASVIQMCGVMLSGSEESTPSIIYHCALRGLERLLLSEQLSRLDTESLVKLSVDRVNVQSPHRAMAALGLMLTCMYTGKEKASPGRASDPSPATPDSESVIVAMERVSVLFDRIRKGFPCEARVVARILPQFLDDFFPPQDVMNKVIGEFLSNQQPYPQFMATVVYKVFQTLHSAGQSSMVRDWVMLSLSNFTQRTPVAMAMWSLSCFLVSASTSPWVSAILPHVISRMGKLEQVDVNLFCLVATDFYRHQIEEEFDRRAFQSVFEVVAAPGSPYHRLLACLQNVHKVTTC

These are yes or no findings as the source states them, for the method shown. For some of these results: Binding seen in cells or lysates may run through a third protein. Some binding calls cover weakened binding; strength is not graded here. For some of these results: Sequences can lack the tags named with a protein.

In experiment [1] the target is Rheb (endogenous, striatum) (mouse (endogenous in striatum)) (UniProt Q921J2). As to the kind of experiment: co-IP.
Another experiment concerns the target T1, GST-FL-RasGRP1 (UniProt Q9R1K8).
T1 sequence: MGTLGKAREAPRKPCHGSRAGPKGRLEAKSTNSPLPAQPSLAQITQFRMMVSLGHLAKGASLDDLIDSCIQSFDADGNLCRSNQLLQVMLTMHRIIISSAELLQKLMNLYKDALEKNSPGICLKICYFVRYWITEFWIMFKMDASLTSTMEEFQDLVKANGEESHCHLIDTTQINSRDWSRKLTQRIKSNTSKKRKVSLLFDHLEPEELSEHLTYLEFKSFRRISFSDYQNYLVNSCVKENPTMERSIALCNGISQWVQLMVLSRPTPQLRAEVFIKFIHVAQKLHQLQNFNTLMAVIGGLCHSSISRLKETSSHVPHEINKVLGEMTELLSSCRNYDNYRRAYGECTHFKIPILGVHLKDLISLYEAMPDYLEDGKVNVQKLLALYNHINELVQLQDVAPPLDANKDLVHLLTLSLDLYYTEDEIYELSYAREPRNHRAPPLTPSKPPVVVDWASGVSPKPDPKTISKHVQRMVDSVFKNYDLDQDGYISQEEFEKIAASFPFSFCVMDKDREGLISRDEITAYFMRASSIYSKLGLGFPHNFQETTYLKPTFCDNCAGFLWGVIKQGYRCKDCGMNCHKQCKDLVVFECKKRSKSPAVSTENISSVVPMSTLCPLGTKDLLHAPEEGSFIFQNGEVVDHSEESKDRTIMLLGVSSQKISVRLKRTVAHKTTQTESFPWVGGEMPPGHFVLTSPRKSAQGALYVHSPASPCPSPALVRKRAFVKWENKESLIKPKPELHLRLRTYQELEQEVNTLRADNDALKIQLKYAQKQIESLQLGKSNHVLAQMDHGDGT
As to the kind of experiment: pull-down.

The target in experiment [2] is T2, GST-RasGRP1 GEF domain (1-470 amino acids) (UniProt Q9R1K8).
T2 sequence: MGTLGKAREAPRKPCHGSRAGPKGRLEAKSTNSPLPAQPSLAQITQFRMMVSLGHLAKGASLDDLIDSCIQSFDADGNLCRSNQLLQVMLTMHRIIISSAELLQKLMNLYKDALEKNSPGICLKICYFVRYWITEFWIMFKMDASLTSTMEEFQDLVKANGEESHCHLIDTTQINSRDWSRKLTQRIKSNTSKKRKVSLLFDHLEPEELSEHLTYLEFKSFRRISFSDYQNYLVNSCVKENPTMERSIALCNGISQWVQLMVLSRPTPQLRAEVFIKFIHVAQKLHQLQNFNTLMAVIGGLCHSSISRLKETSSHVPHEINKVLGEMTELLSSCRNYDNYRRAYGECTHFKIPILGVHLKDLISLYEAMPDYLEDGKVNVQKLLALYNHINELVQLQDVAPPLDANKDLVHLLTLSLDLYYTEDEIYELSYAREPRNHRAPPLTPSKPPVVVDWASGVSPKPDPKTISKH
As to the kind of experiment: pull-down.

“huntingtin (endogenous, striatum) (from UniProt P42859)”: the binding result in experiment [1] is “binds”.

As for “Rheb (recombinant) (from UniProt Q15382 1-184)”, the binding result (with GST-FL-RasGRP1; in experiment [2]) was “binds” in each case.

B1: RasGRP1 (endogenous, striatum) (protein, UniProt Q9Z1S3 1-795)
chain: MGTLGKAREAPRKPCHGSRAGPKARLEAKSTNSPLPAQPSLAQITQFRMMVSLGHLAKGASLDDLIDSCIQSFDADGNLCRNNQLLQVMLTMHRIIISSAELLQKVMNLYKDALEKNSPGVCLKICYFVRYWITEFWIMFKMDASLTSTMEEFQDLVKANGEETHCHLIDTTQINSRDWSRKLTQRIKSNTSKKRKVSLLFDHLEPEELSEHLTYLEFKSFRRISFSDYQNYLVNSCVKENPTMERSIALCNGISQWVQLMVLSRPTPQLRAEVFIKFIHVAQKLHQLQNFNTLMAVIGGLCHSSISRLKETSSHVPHEINKVLGEMTELLSSCRNYDNYRRAYGECTHFKIPILGVHLKDLISLYEAMPDYLEDGKVNVQKLLALYNHINELVQLQEMAPPLDANKDLVHLLTLSLDLYYTEDEIYELSYAREPRNHRAPPLTPSKPPVVVDWASGVSPKPDPKTISKHVQRMVDSVFKNYDLDQDGYISQEEFEKIAASFPFSFCVMDKDREGLISRDEITAYFMRASSIYSKLGLGFPHNFQETTYLKPTFCDNCAGFLWGVIKQGYRCKDCGMNCHKQCKDLVVFECKKRIKSPAISTENISSVVPMSTLCPLGTKDLLHAPEEGSFIFQNGEIVDHSEESKDRTIMLLGVSSQKISVRLKRTVAHKSTQTESFPWVGGETTPGHFVLSSPRKSAQGALYVHSPASPCPSPALVRKRAFVKWENKESLIKPKPELHLRLRTYQELEQEINTLKADNDALKIQLKYAQKKIESLQLGKSNHVLAQMDHGDSA
B1: the binding result in experiment [1] was “binds”.
